In the supplement of paper PMC8616043:
Structures can show the parent of a compound that is named as a salt. Some of the results follow. This data set is noisy: repeats of one test often differ as much as different tests do.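 Human U-2 OS cells stably expressing a GFP sensor with a nuclear import signal and classical export signal were transfected to produce PR50, a 50-repeat proline–arginine dipeptide from ALS/FTD gene C9ORF72. Nuclear-minus-cytoplasm GFP was scaled from DMSO (low) to PR-only (high), scored against plate test wells; strongly negative scores marked PR-reversing hits.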

Test system: U-2 OS NCT-C biosensor cells expressing PR50
Assay: Z-score of normalised NCT-C biosensor translocation index in PR50-expressing cells; higher = more nuclear biosensor (more disrupted nuclear export)
Conditions: 3 µM; 24 h

Row | Compound | Z-score
1 | NCCc1ccc(O)cc1 [4-Hydroxy phenethylamine HCl] | inactive: -0.409
2 | CCCN1CCC[C@H](c2cccc(O)c2)C1 [R(+)-3PPP  hydrochloride] | inactive: -1.49
3 | CC[C@@]1([C@@H]2O[C@@H]([C@H]3O[C@@](O)(CO)[C@H](C)C[C@@H]3C)C[C@@H]2C)CC[C@H]([C@]2(C)CC[C@]3(C[C@H](O)[C@@H](C)[C@@H]([C@@H](C)[C@@H](OC)[C@H](C)C(=O)O)O3)O2)O1 [Monensin] | inactive: -0.156
4 | CCN(C)C(=O)Oc1cccc([C@H](C)N(C)C)c1 [Rivastigmine Tartrate] | inactive: -0.323
5 | CCN(C)C(=O)Oc1cccc([C@H](C)N(C)C)c1 [Rivastigmine tartrate] | inactive: -0.107
6 | CCOC(=O)c1ccc(-c2ccc(OC(=O)N(C)Cc3cccc(-c4ccncc4)c3)cc2)cc1 | inactive: 3.05
7 | CC1=C[C@]23C(=O)[C@@H](C=C(CO)[C@@H](O)[C@]2(O)[C@H]1O)[C@H]1[C@@H](C[C@H]3C)C1(C)C [Ingenol] | inactive: 0.057
8 | C[N+]1(C)CCN(c2ccccc2)CC1 [1,1-Dimethyl-4- phenyl- piperazinium iodide] | inactive: 0.499
9 | COc1ccc2c3c([nH]c2c1)C(C)=NCC3 [Harmaline] | inactive: 0.226
10 | C[C@@H](N)Cc1cnc[nH]1 [Histamine, R(-)- alpha-methyl-, dihydrochloride] | inactive: 0.0385
11 | NCC(O)c1ccc(O)cc1 (racemic) [(±)-Octopamine hydrochloride] | inactive: 0.599
12 | C[N+]1([O-])[C@@H]2CC[C@H]1C[C@@H](OC(=O)C(CO)c1ccccc1)C2 (stereo partly specified) [Atropine-N-oxide·HCl] | inactive: 0.573
13 | C=CCc1cc(OC)c2c(c1)OCO2 [Myristicin] | inactive: -0.24
14 | COc1ccc(C(=O)OC2CC3CCC(C2)N3C)cc1OC (stereo unspecified) [Convolvamine] | inactive: 0.284
15 | COc1ccc2c(c[n+](C)c3c4cc5c(cc4ccc23)OCO5)c1OC [Chelerythrine] | inactive: -0.922
16 | CNc1ccc2oc(C[C@H]3O[C@@]4(CC[C@H]3C)O[C@H]([C@H](C)C(=O)c3ccc[nH]3)[C@H](C)C[C@H]4C)nc2c1C(=O)O [Calcimycin] | inactive: 0.00806
17 | c1ccc2c(c1)[I+]c1ccccc1-2 [Diphenylene iodonium chloride] | inactive: -0.0174
18 | CCN1C[C@]2(COC)[C@H](O)C[C@H](OC)[C@@]34[C@@H]5C[C@@]6(O)[C@H](OC(=O)c7ccccc7)[C@@H]5[C@@](OC(C)=O)([C@@H]([C@H](OC)[C@H]23)[C@@H]14)[C@@H](O)[C@@H]6OC [Aconitine] | inactive: -0.182
19 | CCN1C[C@]2(OC(=O)c3ccccc3NC(C)=O)CC[C@H](OC)[C@@]34[C@@H]2C[C@@H]([C@@H]13)[C@@]1(O)C[C@H](OC)[C@H]2C[C@@H]4[C@]1(O)[C@H]2OC [Lappaconitine] | inactive: -0.887
20 | CC1=C2[C@H]3OC(=O)[C@@H](C)[C@@H]3CC[C@@]2(C)C=CC1=O [Santonin] | inactive: -0.373
21 | C/C=C1\C[C@@H](C)[C@](O)(CO)C(=O)OCC2=CCN3CC[C@@H](OC1=O)[C@@H]23 [Retrorsine] | inactive: -0.628

Row | Compound | Z-score
22 | Cc1c([C@H](C)[C@@H]2NC[C@@H](C)C[C@H]2O)ccc2c1C[C@H]1[C@H]2CC=C2C[C@@H](O)CC[C@@]21C [Veratramine] | inactive: -0.35
23 | CC(N)Cc1c[nH]c2ccc(O)cc12 (stereo not drawn) [alpha-Methyl-5- hydroxytryptamine maleate] | inactive: 0.116
24 | CN1C[C@H](CO)C=C2c3cccc4[nH]cc(c34)C[C@H]21 [Lysergol] | inactive: 0.637
25 | COC1=CC(=O)O[C@@H](CCc2ccc3c(c2)OCO3)C1 [Dihydromethysticin] | inactive: 0.431
26 | O=C1CCCN1CC#CCN1CCCC1 [Oxotremorine sesquifumarate salt] | inactive: -0.885
27 | CNCCc1c[nH]c2ccc(O)cc12 [N-omega-Methyl-5-hydroxytryptamine oxalate salt] | inactive: -0.626
28 | NCCCP(=O)(O)O [3-Aminopropyl phosphonic acid] | inactive: -0.0461
29 | COc1ccc(Cc2nccc3cc(OC)c(OC)cc23)cc1OC [Papaverine hydrochloride] | inactive: -0.586
30 | COc1ccc2c3c4n(c2c1)[C@H](C=C(C)C)OOC(C)(C)C[C@@H]4N1C(=O)[C@@H]2CCCN2C(=O)[C@]1(O)[C@H]3O [Verruculogen] | inactive: -0.322
31 | NNC(=O)c1ccc(O)cc1 [4-Hydroxy benzhydrazide] | inactive: -0.174
32 | C=C(C)[C@H]1Cc2c(ccc3c2O[C@@H]2COc4cc(OC)c(OC)cc4[C@@H]2C3=O)O1 [Rotenone] | inactive: 0.513
33 | COC(=O)C1=CCCN(C)C1 [Arecoline hydrobromide] | inactive: 0.627
34 | Fc1ccc(C(OCCN2CCN(CCCc3ccccc3)CC2)c2ccc(F)cc2)cc1 | inactive: -0.127
35 | NNC(N)=O [Semicarbazide hydrochloride] | inactive: -0.577
36 | O=C[C@H](Cl)[C@@H](O)[C@H](O)[C@H](O)CO [2-Chloro-2-deoxy- D-glucose] | inactive: -0.377
37 | CC[C@H]1[C@@H]2C[C@H]3[C@@H]4N(C)c5ccccc5[C@]45C[C@@H]([C@@H]2[C@H]5O)N3[C@@H]1O [Ajmaline] | inactive: -0.211
38 | CS(=N)(=O)CC[C@H](N)C(=O)O (stereo partly drawn) [L-Methionine sulfoximine] | inactive: 0.146
39 | CC1=CC(=O)C2=C(C)C[C@H](O)[C@@H]3[C@H](OC(=O)[C@H]3C)[C@@H]12 [Austricin] | inactive: -0.328
40 | COc1cc([C@@H]2c3cc4c(cc3[C@H](O)[C@H]3COC(=O)[C@H]23)OCO4)cc(OC)c1OC [Podophyllotoxin] | inactive: 1.05
41 | COc1cc([C@@H]2c3cc4c(cc3[C@H](O)[C@H]3COC(=O)[C@H]23)OCO4)cc(OC)c1OC [Podofilox] | inactive: 1.15

For reference, part of the list above:
Row | Compound | Z-score
29 | COc1ccc(Cc2nccc3cc(OC)c(OC)cc23)cc1OC [Papaverine hydrochloride] | inactive: -0.586
30 | COc1ccc2c3c4n(c2c1)[C@H](C=C(C)C)OOC(C)(C)C[C@@H]4N1C(=O)[C@@H]2CCCN2C(=O)[C@]1(O)[C@H]3O [Verruculogen] | inactive: -0.322
31 | NNC(=O)c1ccc(O)cc1 [4-Hydroxy benzhydrazide] | inactive: -0.174
